These are yes or no findings as the source states them, for the method shown. Binding seen in cells or lysates may run through a third protein. Some entries that bind do so weakly or less than the wild type. Tags and fused reporters may be left off the sequences shown.
Experiments:
[1] = biological target: T1, 3×FLAG-tagged RQ4-2A (RECQL4 Ser89Ala/Ser251Ala) (human) (UniProt O94761); test: co-IP; M2 FLAG beads on lysate (2 mg protein) of HEK293T cells expressing 3×FLAG-tagged RECQL4, mutants or truncations, overnight at 4 °C; lysis buffer 2 with Benzonase; Western blotting of endogenous partners
T1 sequence: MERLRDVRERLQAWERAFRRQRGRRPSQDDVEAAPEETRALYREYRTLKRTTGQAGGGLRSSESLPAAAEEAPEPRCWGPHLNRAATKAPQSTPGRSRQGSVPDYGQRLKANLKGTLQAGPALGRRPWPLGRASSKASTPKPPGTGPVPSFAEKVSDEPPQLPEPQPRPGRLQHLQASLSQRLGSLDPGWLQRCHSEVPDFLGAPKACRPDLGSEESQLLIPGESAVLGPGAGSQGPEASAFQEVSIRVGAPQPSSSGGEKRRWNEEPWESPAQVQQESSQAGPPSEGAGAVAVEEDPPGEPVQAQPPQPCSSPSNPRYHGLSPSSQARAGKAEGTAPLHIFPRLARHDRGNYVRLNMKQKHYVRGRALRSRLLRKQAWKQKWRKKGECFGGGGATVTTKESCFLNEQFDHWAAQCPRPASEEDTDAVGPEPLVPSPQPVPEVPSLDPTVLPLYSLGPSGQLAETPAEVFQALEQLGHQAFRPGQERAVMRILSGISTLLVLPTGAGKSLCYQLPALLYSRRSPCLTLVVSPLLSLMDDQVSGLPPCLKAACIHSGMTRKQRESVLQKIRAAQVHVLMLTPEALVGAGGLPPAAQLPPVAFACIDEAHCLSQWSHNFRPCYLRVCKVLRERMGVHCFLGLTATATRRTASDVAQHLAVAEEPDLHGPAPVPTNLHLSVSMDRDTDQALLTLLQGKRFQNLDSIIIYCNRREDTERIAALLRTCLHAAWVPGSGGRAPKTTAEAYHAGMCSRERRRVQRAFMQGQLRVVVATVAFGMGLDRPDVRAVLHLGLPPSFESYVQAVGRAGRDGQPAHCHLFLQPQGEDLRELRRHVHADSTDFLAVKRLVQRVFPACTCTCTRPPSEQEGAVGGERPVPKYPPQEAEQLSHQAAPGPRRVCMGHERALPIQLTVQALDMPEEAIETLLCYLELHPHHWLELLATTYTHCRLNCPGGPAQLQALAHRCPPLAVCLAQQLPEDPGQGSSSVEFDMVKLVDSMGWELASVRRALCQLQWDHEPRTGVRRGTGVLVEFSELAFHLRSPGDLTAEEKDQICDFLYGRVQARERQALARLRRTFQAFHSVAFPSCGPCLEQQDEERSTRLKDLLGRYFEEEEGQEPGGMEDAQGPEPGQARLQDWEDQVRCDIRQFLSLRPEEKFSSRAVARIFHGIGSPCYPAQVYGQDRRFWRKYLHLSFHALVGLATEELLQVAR

Sequences of proteins named here, by UniProt entry; tags and fusion partners are left off.
UniProt Q16531: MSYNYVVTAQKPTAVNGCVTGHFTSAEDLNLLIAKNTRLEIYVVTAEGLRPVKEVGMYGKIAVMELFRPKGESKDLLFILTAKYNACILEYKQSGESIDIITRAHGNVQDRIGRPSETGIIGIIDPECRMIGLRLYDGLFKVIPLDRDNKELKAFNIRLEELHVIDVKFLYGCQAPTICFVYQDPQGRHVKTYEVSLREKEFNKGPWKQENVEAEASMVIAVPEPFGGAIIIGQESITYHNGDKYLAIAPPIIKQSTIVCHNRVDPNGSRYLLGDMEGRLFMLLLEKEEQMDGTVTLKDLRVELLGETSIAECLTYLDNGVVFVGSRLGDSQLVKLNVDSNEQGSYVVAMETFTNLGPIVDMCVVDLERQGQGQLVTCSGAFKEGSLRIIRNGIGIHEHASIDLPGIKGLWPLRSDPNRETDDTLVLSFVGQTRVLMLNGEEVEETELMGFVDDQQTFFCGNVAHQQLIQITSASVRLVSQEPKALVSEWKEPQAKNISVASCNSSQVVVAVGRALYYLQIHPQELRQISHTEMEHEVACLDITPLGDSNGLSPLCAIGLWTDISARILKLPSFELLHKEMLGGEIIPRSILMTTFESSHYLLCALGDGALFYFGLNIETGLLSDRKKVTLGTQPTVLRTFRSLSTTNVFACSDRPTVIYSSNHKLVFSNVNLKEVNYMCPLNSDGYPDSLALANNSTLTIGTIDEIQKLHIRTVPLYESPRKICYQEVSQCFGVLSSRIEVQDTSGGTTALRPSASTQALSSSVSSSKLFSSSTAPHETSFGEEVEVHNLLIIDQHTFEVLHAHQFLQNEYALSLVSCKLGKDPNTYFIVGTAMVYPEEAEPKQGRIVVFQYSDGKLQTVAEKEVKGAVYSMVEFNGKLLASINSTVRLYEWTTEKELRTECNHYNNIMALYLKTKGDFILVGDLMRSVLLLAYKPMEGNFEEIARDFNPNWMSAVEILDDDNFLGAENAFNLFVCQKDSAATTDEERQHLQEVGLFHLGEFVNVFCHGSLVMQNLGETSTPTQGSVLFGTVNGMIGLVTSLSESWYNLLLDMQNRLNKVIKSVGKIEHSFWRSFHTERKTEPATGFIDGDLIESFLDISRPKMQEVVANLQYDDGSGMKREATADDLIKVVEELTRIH

[2] = biological target: T2, 3×FLAG-tagged RECQL4 N-terminal domain NT (1-427AA) with SV40 nuclear location signal (human) (UniProt O94761); test: as above
T2 sequence: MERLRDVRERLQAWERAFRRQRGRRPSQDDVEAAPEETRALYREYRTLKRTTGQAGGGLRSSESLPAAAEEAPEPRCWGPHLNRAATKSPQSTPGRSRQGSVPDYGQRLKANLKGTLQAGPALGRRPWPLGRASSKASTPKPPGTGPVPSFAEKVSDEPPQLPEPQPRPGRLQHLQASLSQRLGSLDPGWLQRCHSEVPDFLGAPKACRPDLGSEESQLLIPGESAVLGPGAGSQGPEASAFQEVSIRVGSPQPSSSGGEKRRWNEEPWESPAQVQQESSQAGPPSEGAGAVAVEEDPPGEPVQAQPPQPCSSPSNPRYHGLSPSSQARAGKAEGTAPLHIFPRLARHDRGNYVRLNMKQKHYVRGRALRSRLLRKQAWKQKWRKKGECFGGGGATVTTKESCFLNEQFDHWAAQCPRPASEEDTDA

In the case of DDB1 (from UniProt Q16531 1-1140), the binding [1] is reported as “binds” and the binding [2] is reported as “binds”.

Reference: publication PMC5725494, “Cell cycle-dependent phosphorylation regulates RECQL4 pathway choice and ubiquitination in DNA double-strand break repair”
